For some assays here: Expression grades refer to the transcript from which the peptide derives; gene names, where given, were looked up from the sequence.
Legend:
[1] = tested on: source genes (mRNA); assay: Expression profiling of source genes by in-house RNASeq of tumor and normal tissues (Table 18, FIG. 2); set-up: species or system human; key: very highly over-expressed in tumors compared to a panel of normal tissues (+++); highly over-expressed in tumors compared to a panel of normal tissues (++); over-expressed in tumors compared to a panel of normal tissues (+); settings: source gene of peptide; for Expression score BRCA: BRCA tumors vs panel of normal tissues; for Expression score CRC: colorectal cancer (N = 20) vs panel of normal tissues; for Expression score OSCAR: esophageal cancer incl. gastric-esophageal junction (N = 11) vs panel of normal tissues; for Expression score NHL: non-Hodgkin lymphoma (N = 10) vs panel of normal tissues; for Expression score NSCLC: non-small cell lung cancer (N = 11) vs panel of normal tissues; for Expression score OC: ovarian cancer (N = 12) vs panel of normal tissues; for Expression score SCLC: small cell lung cancer (N = 10) vs panel of normal tissues
[2] = tested on: HLA-A*24; assay: Identification and relative LC-MS quantitation of HLA-A*24-presented tumor-associated peptides on tissue samples (presentation profiles, Tables 14A, 14B, 16, FIG. 1); set-up: species or system human; key to Presentation score GC / Presentation score NSCLC / Presentation score PCA / Presentation score GB / Presentation score HCC / Presentation score RCC: specifically presented on tumors (++++); very highly over-presented on tumors compared to a panel of normal tissues (+++); highly over-presented on tumors compared to a panel of normal tissues (++); over-presented on tumors compared to a panel of normal tissues (+); settings: for number of cancer tissues where the peptide was found to be presented: FIG. 1, A*24 positive samples, only samples with presentation shown; for Presentation score GC: gastric cancer (N = 44) vs panel of normal tissues (N = 70); for Presentation score HCC: hepatocellular carcinoma (N = 15) vs panel of normal tissues (N = 70); for Presentation score NSCLC: non-small cell lung cancer (N = 91) vs panel of normal tissues (N = 70); for Presentation score PCA: prostate cancer (N = 40) vs panel of normal tissues (N = 70); for Peptide Presentation on cancer entities: Table 14A, HLA-A*24-binding tumor-associated peptides, cancer entities on which the peptide was found presented
[3] = tested on: source genes (mRNA); assay: Gene and exon expression of source genes, TCGA tumor samples compared with normal tissue samples (Lonsdale, 2013) (Table 17); set-up: species or system human; settings: for Over-expression category of source gene (target coverage), BLCA: BLCA = Bladder urothelial carcinoma (N = 408); for Over-expression category of source gene (target coverage), BRCA: BRCA = Breast cancer (N = 1104), tumors more than 2-fold above highest 75% percentile of normal tissues; for Over-expression category of source gene (target coverage), CHOL: CHOL = Cholangiocarcinoma (N = 36); for Over-expression category of source gene (target coverage), COAD: COAD = Colon and rectal adenocarcinoma (N = 462); for Over-expression category of source gene (target coverage), DLBC: DLBC = Lymphoid neoplasm diffuse large B-cell lymphoma (N = 48); for Over-expression category of source gene (target coverage), ESCA: ESCA = Esophageal cancer (N = 185); for Over-expression category of source gene (target coverage), GBM: GBM = Glioblastoma multiforme (N = 169); for Over-expression category of source gene (target coverage), LAML: LAML = Acute Myeloid Leukemia (N = 173); for Over-expression category of source gene (target coverage), LGG: LGG = Lower grade glioma (N = 534); for Over-expression category of source gene (target coverage), LUAD: LUAD = Lung adenocarcinoma (N = 517); for Over-expression category of source gene (target coverage), LUSC: LUSC = Lung squamous cell carcinoma (N = 503); for Over-expression category of source gene (target coverage), OV: OV = Ovarian serous cystadenocarcinoma (N = 309); for Over-expression category of source gene (target coverage), PRAD: PRAD = Prostate adenocarcinoma (N = 498); for Over-expression category of source gene (target coverage), READ: READ = Colon and rectal adenocarcinoma (N = 167); for Over-expression category of source gene (target coverage), SKCM: SKCM = Skin cutaneous melanoma (N = 473); for Over-expression category of source gene (target coverage), STAD: STAD = Stomach adenocarcinoma (N = 415); for Over-expression category of source gene (target coverage), UCEC: UCEC = Uterine corpus endometrial carcinoma (N = 546)

158: peptide found in PRKDC (gene looked up) (HYSQELSLLYL; listed as Homo sapiens) [compound 158]
Expression score BRCA [1]: +
Expression score CRC [1]: +
Expression score OSCAR [1]: +
Expression score GB ([1]; glioblastoma (N = 24) vs panel of normal tissues): +
Expression score NHL [1]: +
Expression score NSCLC [1]: +
Expression score OC [1]: +
Expression score SCLC [1]: +
number of cancer tissues where the peptide was found to be presented [2]: 19
Presentation score GC ([2]; HLA-A*24 peptides): ++++
Presentation score GB ([2]; HLA-A*24 peptides, glioblastoma (N = 18) vs panel of normal tissues (N = 70)): ++++
Presentation score HCC ([2]; HLA-A*24 peptides): ++++
Presentation score NSCLC ([2]; HLA-A*24 peptides): ++++
Presentation score PCA ([2]; HLA-A*24 peptides): ++++
Presentation score RCC ([2]; HLA-A*24 peptides, renal cell carcinoma (N = 2) vs panel of normal tissues (N = 70)): ++++
Peptide Presentation on cancer entities [2]: GB, GC, NSCLC, HCC, PCA, RCC
Over-expression category of source gene (target coverage), BLCA ([3]; same cutoff): B (>= 20% of tumors above the cutoff, but <50%)
Over-expression category of source gene (target coverage), BRCA [3]: A (>=50% of tumors above the cutoff)
Over-expression category of source gene (target coverage), CHOL ([3]; same cutoff): C (>=5% of tumors above the cutoff, but <20%)
Over-expression category of source gene (target coverage), COAD ([3]; same cutoff): B (>= 20% of tumors above the cutoff, but <50%)
Over-expression category of source gene (target coverage), DLBC ([3]; same cutoff): C (>=5% of tumors above the cutoff, but <20%)
Over-expression category of source gene (target coverage), ESCA ([3]; same cutoff): A (>=50% of tumors above the cutoff)
Over-expression category of source gene (target coverage), GBM ([3]; same cutoff): C (>=5% of tumors above the cutoff, but <20%)
Over-expression category of source gene (target coverage), LAML ([3]; same cutoff): A (>=50% of tumors above the cutoff)
Over-expression category of source gene (target coverage), LGG ([3]; same cutoff): C (>=5% of tumors above the cutoff, but <20%)
Over-expression category of source gene (target coverage), LUAD ([3]; same cutoff): B (>= 20% of tumors above the cutoff, but <50%)
Over-expression category of source gene (target coverage), LUSC ([3]; same cutoff): A (>=50% of tumors above the cutoff)
Over-expression category of source gene (target coverage), OV ([3]; same cutoff): C (>=5% of tumors above the cutoff, but <20%)
Over-expression category of source gene (target coverage), PRAD ([3]; same cutoff): C (>=5% of tumors above the cutoff, but <20%)
Over-expression category of source gene (target coverage), READ ([3]; same cutoff): B (>= 20% of tumors above the cutoff, but <50%)
Over-expression category of source gene (target coverage), SKCM ([3]; same cutoff): A (>=50% of tumors above the cutoff)
Over-expression category of source gene (target coverage), STAD ([3]; same cutoff): B (>= 20% of tumors above the cutoff, but <50%)
Over-expression category of source gene (target coverage), UCEC ([3]; same cutoff): C (>=5% of tumors above the cutoff, but <20%)

160: peptide found in ATAD2 (gene looked up) (VYTLDIPVL; listed as Homo sapiens) [compound 160]
Expression score BRCA [1]: +
Expression score CRC [1]: +
Expression score OSCAR [1]: +
Expression score GBC_CCC ([1]; gallbladder adenocarcinoma and cholangiocarcinoma (N = 3) vs panel of normal tissues): +
Expression score NHL [1]: +
Expression score NSCLC [1]: +
Expression score OC [1]: ++
Expression score SCLC [1]: +++
number of cancer tissues where the peptide was found to be presented [2]: 17
Presentation score GC ([2]; HLA-A*24 peptides): ++++
Presentation score HCC ([2]; HLA-A*24 peptides): ++++
Presentation score NSCLC ([2]; HLA-A*24 peptides): ++++
Presentation score PCA ([2]; HLA-A*24 peptides): ++++
Peptide Presentation on cancer entities [2]: GC, NSCLC, HCC, PCA
Over-expression category of source gene (target coverage), BLCA ([3]; same cutoff): B (>= 20% of tumors above the cutoff, but <50%)
Over-expression category of source gene (target coverage), BRCA [3]: A (>=50% of tumors above the cutoff)
Over-expression category of source gene (target coverage), CHOL ([3]; same cutoff): C (>=5% of tumors above the cutoff, but <20%)
Over-expression category of source gene (target coverage), COAD ([3]; same cutoff): B (>= 20% of tumors above the cutoff, but <50%)
Over-expression category of source gene (target coverage), DLBC ([3]; same cutoff): B (>= 20% of tumors above the cutoff, but <50%)
Over-expression category of source gene (target coverage), ESCA ([3]; same cutoff): A (>=50% of tumors above the cutoff)
Over-expression category of source gene (target coverage), GBM ([3]; same cutoff): C (>=5% of tumors above the cutoff, but <20%)
Over-expression category of source gene (target coverage), LAML ([3]; same cutoff): A (>=50% of tumors above the cutoff)
Over-expression category of source gene (target coverage), LGG ([3]; same cutoff): C (>=5% of tumors above the cutoff, but <20%)
Over-expression category of source gene (target coverage), LIHC ([3]; LIHC = Liver hepatocellular carcinoma (N = 374), same cutoff): C (>=5% of tumors above the cutoff, but <20%)
Over-expression category of source gene (target coverage), LUAD ([3]; same cutoff): B (>= 20% of tumors above the cutoff, but <50%)
Over-expression category of source gene (target coverage), LUSC ([3]; same cutoff): A (>=50% of tumors above the cutoff)
Over-expression category of source gene (target coverage), OV ([3]; same cutoff): A (>=50% of tumors above the cutoff)
Over-expression category of source gene (target coverage), PRAD ([3]; same cutoff): C (>=5% of tumors above the cutoff, but <20%)
Over-expression category of source gene (target coverage), READ ([3]; same cutoff): B (>= 20% of tumors above the cutoff, but <50%)
Over-expression category of source gene (target coverage), SKCM ([3]; same cutoff): B (>= 20% of tumors above the cutoff, but <50%)
Over-expression category of source gene (target coverage), STAD ([3]; same cutoff): A (>=50% of tumors above the cutoff)
Over-expression category of source gene (target coverage), UCEC ([3]; same cutoff): C (>=5% of tumors above the cutoff, but <20%)
